Source: patent publication US6436691B1, “Chemical compounds” (Zeneca Limited, priority 1995, dated 2002)
The name of at least one read-out is uncertain.

Columns and labels:
[1] = Km and kcat of HCPB mutants with Hipp-Glu (Example 7); type: biochemical; conditions: Hipp-Glu 0.25-8.0 mM; pH 7.5
Description: (§1) Hipp-Glu and Hipp-Asp were diluted in range 0.25-8.0 mM and 0.25-5.0 mM respectively in 0.025 M Tris-HCL buffer, pH 7.5. Where necessary substrate samples were adjusted to pH 7.5 with 1M NaOH.
(§2) Samples were incubated for 5 h at 37° C. Reactions were terminated by the addition of 500 μl methanol/distilled water (80/20) containing 0.2% TFA. The amount of hippuric acid produced was quantified by HPLC as described in Example 6.
(§3) Km and Vmax values were calculated using the ENZFITTER software programme (Biosoft, Perkin Elmer).

[2] = Km and kcat of HCPB mutants with Hipp-Asp (Example 7); type: biochemical; conditions: Hipp-Asp 0.25-5.0 mM; pH 7.5
Description: as §1, §2, §3

| Molecule | kcat/Km, Hipp-Glu [1] | kcat/Km, Hipp-Asp [2] |
| --- | --- | --- |
| [A248S,G251T,D253K]HCPB: HCPB mutant with A248S, G251T and D253K, (His)6-c-myc tag (protein, UniProt P15086 111-417, looked up, variant A248S G251T D253K, (His)6-c-myc tag) Carboxypeptidase B: ATGHSYEKYNKWETIEAWTQQVATENPALISRSVIGTTFEGRAIYLLKVGKAGQNKPAIFMDCGFHAREWISPAFCQWFVREAVRTYGREIQVTELLDKLDFYVLPVLNIDGYIYTWTKSRFWRKTRSTHTGSSCIGTDPNRNFDAGWCEIGASRNPCDETYCGPAAESEKETKALADFIRNKLSSIKAYLTIHSYSQMMIYPYSYAYKLGENNAELNALAKATVKELASLHGTKYTYGPGATTIYPSAGTSKDWAYDQGIRYSFTFELRDTGRYGFLLPESQIRATCEETFLAIKYVASYVLEHLY | 17300 M⁻¹ s⁻¹ | – |
| [G251N,D253K]: HCPB mutant with G251N and D253K, (His)6-c-myc tag (protein, UniProt P15086 111-417, looked up, variant G251N D253K, (His)6-c-myc tag) Carboxypeptidase B: ATGHSYEKYNKWETIEAWTQQVATENPALISRSVIGTTFEGRAIYLLKVGKAGQNKPAIFMDCGFHAREWISPAFCQWFVREAVRTYGREIQVTELLDKLDFYVLPVLNIDGYIYTWTKSRFWRKTRSTHTGSSCIGTDPNRNFDAGWCEIGASRNPCDETYCGPAAESEKETKALADFIRNKLSSIKAYLTIHSYSQMMIYPYSYAYKLGENNAELNALAKATVKELASLHGTKYTYGPGATTIYPAAGNSKDWAYDQGIRYSFTFELRDTGRYGFLLPESQIRATCEETFLAIKYVASYVLEHLY | 10000 M⁻¹ s⁻¹ | – |
| [G251T,D253K]: HCPB mutant with G251T and D253K, (His)6-c-myc tag (protein, UniProt P15086 111-417, looked up, variant G251T D253K, (His)6-c-myc tag) Carboxypeptidase B: ATGHSYEKYNKWETIEAWTQQVATENPALISRSVIGTTFEGRAIYLLKVGKAGQNKPAIFMDCGFHAREWISPAFCQWFVREAVRTYGREIQVTELLDKLDFYVLPVLNIDGYIYTWTKSRFWRKTRSTHTGSSCIGTDPNRNFDAGWCEIGASRNPCDETYCGPAAESEKETKALADFIRNKLSSIKAYLTIHSYSQMMIYPYSYAYKLGENNAELNALAKATVKELASLHGTKYTYGPGATTIYPAAGTSKDWAYDQGIRYSFTFELRDTGRYGFLLPESQIRATCEETFLAIKYVASYVLEHLY | 68000 M⁻¹ s⁻¹ | – |
| [G251T,D253R]HCPB: HCPB mutant with G251T and D253R, (His)6-c-myc tag (protein, UniProt P15086 111-417, looked up, variant G251T D253R, (His)6-c-myc tag) Carboxypeptidase B: ATGHSYEKYNKWETIEAWTQQVATENPALISRSVIGTTFEGRAIYLLKVGKAGQNKPAIFMDCGFHAREWISPAFCQWFVREAVRTYGREIQVTELLDKLDFYVLPVLNIDGYIYTWTKSRFWRKTRSTHTGSSCIGTDPNRNFDAGWCEIGASRNPCDETYCGPAAESEKETKALADFIRNKLSSIKAYLTIHSYSQMMIYPYSYAYKLGENNAELNALAKATVKELASLHGTKYTYGPGATTIYPAAGTSRDWAYDQGIRYSFTFELRDTGRYGFLLPESQIRATCEETFLAIKYVASYVLEHLY | 4900 M⁻¹ s⁻¹ | 400 M⁻¹ s⁻¹ |
